Results published in PubChem BioAssay AID540276 (National Center for Advancing Translational Sciences (NCATS), 2011).
In all, about 300,000 compounds went through this assay and about 5,400 (1.8%) were called active. This list was built around the results that the source calls inconclusive (neither active nor inactive); the mix of calls is not that of the screen. Calls come from the whole dose curve; tested in HEK293 cells. Where the call is inconclusive, the potency comes from a doubtful curve fit.
% is set by controls: 0 for no effect and ±100 for the full control effect; potency is the fitted concentration of half-maximal effect.

Assay: qHTS for inhibitors of binding or entry into cells for Marburg Virus
Conditions: Marburg virus pseudotyped entry inhibition, cell reporter; activity change, negative = inhibition: at 37.8 µM (top of the series) unless noted
With `Cc1ccn2cc(-c3cnoc3C)nc2c1` the “activity change, negative = inhibition” value was inactive: -0.103%.
With `CCOC(CNCc1cc(C)c2[nH]c3ccccc3c2c1C)OCC` the Potency was inconclusive: 15.8 µM [inhibitor, partial curve, poor fit].
With `CCn1c(=O)c(C(=O)CN2c3ccccc3CC2C)c(N)n(Cc2ccccc2)c1=O` (centres undefined) the Potency was inconclusive: 0.501 µM [inhibitor, full curve, poor fit].
With `Cc1cc(C)nc(NN=C(c2ccccc2)c2ccccc2)n1` the Potency was active: 10.3 µM.
In the case of `O=C(Cn1nnc(-c2ccc3c(c2)OCO3)n1)Nc1ccccc1C(=O)O`, the Potency is reported as inconclusive: 35.5 µM [inhibitor, single point].
In the case of `CCc1cccc(NC(=O)Cn2c(=O)n(CCCCCC(=O)NCc3ccc(F)cc3)c(=O)c3sccc32)c1`, the Potency is reported as inconclusive: 5.62 µM [activator, single point].
In the case of `CCOc1cc(CNCCc2ccc(S(N)(=O)=O)cc2)ccc1OCc1ccccc1`, the Potency is reported as active: 6.51 µM.
With `COc1c(Cl)cc(-c2noc(C)c2C(=O)NCc2ccccc2)cc1Cl` the “activity change, negative = inhibition” value was inactive: -0.232%.
In the case of `CCOc1ccc(Cl)cc1CSc1ncn[nH]1`, the Potency is reported as inconclusive: 5.01 µM [inhibitor, full curve].
For `O=C(NCc1ccc(F)cc1)c1ccc(NC(=O)C2CCCO2)cc1` (centres undefined), the “activity change, negative = inhibition” value was inactive: 3.68% [at 46.1 µM].
For `COc1ccc(OS(=O)(=O)Cc2ccccc2)cc1`, the Potency was inconclusive: 5.62 µM [activator, single point].
For `CCC(C)NCCOCCOc1ccccc1-c1ccccc1` (centres undefined), the Potency was inconclusive: 18.3 µM [inhibitor, single point].
With `C/C(=N\NC(=O)CCCNc1ccc(C)cc1)c1ccccn1` the Potency was active: 6.51 µM.
In the case of `CCOC(=O)Cc1nnc(NC(=O)CSc2ccccc2)s1`, the Potency is reported as inconclusive: 0.794 µM [activator, full curve, poor fit].
For `OC(COc1c(Br)cc(Br)cc1Br)CN1CCOCC1` (centres undefined), the Potency was inconclusive: 17.8 µM [inhibitor, single point].
In the case of `CCc1ccc(/C=N/NC(=O)c2cc(C3CC3)nc3ccccc23)s1`, the Potency is reported as inconclusive: 7.08 µM [inhibitor, partial curve, poor fit].
In the case of `Cc1ccc(C)c(N2CCN(C(=O)C3CCC(CNS(=O)(=O)c4cccs4)CC3)CC2)c1` (centres undefined), the Potency is reported as inconclusive: 31.6 µM [inhibitor, single point].
In the case of `CCN1C(=O)C(CC(=O)Nc2ccc(OC)cc2)N(Cc2cccnc2)C1=S` (centres undefined), the “activity change, negative = inhibition” value is reported as inactive: -20.2%.
With `COc1ccc(OC)c(NC(=O)C2CCCN(S(=O)(=O)c3ccc(-n4cnnn4)cc3)C2)c1` (centres undefined) the Potency was inconclusive: 22.4 µM [inhibitor, single point].
For `O=C(Nc1cccc(C(F)(F)F)c1)OCc1ccncc1`, the Potency was inconclusive: 35.5 µM [inhibitor, single point].
With `CCN(C(=O)Cn1nc(C)n2c(cc3cc(C)ccc32)c1=O)c1ccccc1` the “activity change, negative = inhibition” value was inactive: -7.25% [at 46.1 µM].
In the case of `Cc1ccc(OC(C)C(=O)Nc2ncc(Cl)cc2Cl)c([N+](=O)[O-])n1` (centres undefined), the Potency is reported as inconclusive: 2.51 µM [inhibitor, single point].
With `C[C@@H]1CC2CCCC2[C@]2(O1)C(=O)Nc1ccccc12` (some centres undefined) the “activity change, negative = inhibition” value was inactive: -3.94% [at 14.2 µM].
With `CN(C)C(=S)NC(=S)Nc1ccc2ccccc2c1` the Potency was inconclusive: 35.5 µM [inhibitor, single point].
With `O=C(CCl)Nc1ccc(N2CCCCCC2)cc1` the Potency was inconclusive: 3.16 µM [activator, single point].
With `CCOc1cccc(N2C(=O)CC(=O)NC2=O)c1` the Potency was inconclusive: 1.41 µM [activator, partial curve, poor fit].
For `Cc1c(Cl)cccc1NC(=S)NCc1ccc2c(c1)OCO2`, the Potency was inconclusive: 2 µM [activator, full curve].
For `COc1ccc2cc3cc(C(=O)NC(C)C)oc3nc2c1`, the Potency was inconclusive: 2.06 µM [activator, partial curve, poor fit].
In the case of `COC(=O)c1ccc(-n2nnnc2SCC(=O)Nc2ccccc2OC)cc1`, the “activity change, negative = inhibition” value is reported as inactive: -4.33%.
For `COC(=O)c1nnc(-c2ccccc2)nc1OC`, the “activity change, negative = inhibition” value was inactive: -9.62% [at 46.1 µM].
For `COc1ccc(NC(=O)Cn2nnc(C(=O)NCc3ccccc3)c2N)c(OC)c1`, the Potency was active: 8.2 µM.
In the case of `COc1cccc(C(c2nnnn2CCc2ccccc2)N2CCN(c3ccccc3)CC2)c1OC` (centres undefined), the Potency is reported as inconclusive: 14.1 µM [inhibitor, single point].
For `Cc1ccc(S(=O)(=O)N2CCCCC2)cc1NC(=O)COC(=O)Cc1cccc2ccccc12`, the Potency was inconclusive: 35.5 µM [inhibitor, partial curve, poor fit].
For `COc1ccc(-c2cn3ccsc3n2)cc1`, the Potency was inconclusive: 12.6 µM [inhibitor, partial curve].
In the case of `COc1cccc(NC(=O)C(=O)NCc2ccncc2)c1`, the Potency is reported as inconclusive: 3.55 µM [activator, single point].
For `O=C(O)C/C(=C\c1cc2c(cc1Br)OCO2)c1nc2ccccc2s1`, the “activity change, negative = inhibition” value was inactive: -1.72% [at 46.1 µM].
With `COc1ccc(-n2c(COc3cccc4ccccc34)nnc2SCC(=O)NCc2ccco2)cc1` the Potency was inconclusive: 9.2 µM [inhibitor, partial curve, poor fit].
For `CCN1CCCC1CNC(=O)C(=O)Nc1ccccc1` (centres undefined), the Potency was inconclusive: 5.01 µM [activator, partial curve, poor fit].
With `CCCC1CCc2c(sc(NC(=O)OCC)c2C#N)C1` (centres undefined) the Potency was inconclusive: 9.2 µM [inhibitor, partial curve].
In the case of `O=C(NCCOc1ccccc1)C1CCC(=O)N(CCc2ccc(Cl)cc2)C1` (centres undefined), the Potency is reported as inconclusive: 25.1 µM [inhibitor, single point].
In the case of `C/C(=N\OCC(=O)Nc1nc2ccccc2s1)c1ccccc1`, the Potency is reported as inconclusive: 22.4 µM [inhibitor, single point].
With `CC(=O)c1cccc(NC(=O)Nc2ccc3c(c2)OCO3)c1` the Potency was inconclusive: 1.12 µM [activator, full curve, poor fit].
With `CCOC(=O)c1sc(NC(=O)c2sc(C)nc2C)nc1C` the Potency was inconclusive: 3.55 µM [activator, partial curve, poor fit].
For `O=C(/C=C/c1ccc(O)cc1)c1ccc(NC2=C(N3CCCCC3)C(=O)c3ccccc3C2=O)cc1`, the Potency was inconclusive: 15.8 µM [inhibitor, partial curve, poor fit].
For `O=C(NCCc1ccccc1)c1ccc2c(c1)N(Cc1ccc(Cl)cc1)C(=O)c1ccccc1S2(=O)=O`, the Potency was inconclusive: 10 µM [inhibitor, single point].
In the case of `Cc1ccc2[nH]c3c(c2c1)CN(C(=O)CN1CC(C)OC(C)C1)CC3` (centres undefined), the “activity change, negative = inhibition” value is reported as inactive: 6.49%.
In the case of `COc1ccc(S(=O)(=O)N2CCC(c3cc(-c4cccc5ccccc45)n[nH]3)CC2)cc1`, the Potency is reported as inconclusive: 29.1 µM [inhibitor, single point].
With `COc1ccc(Cn2c(SCc3ccc(C(=O)NCc4ccc(C)cc4)cc3)nc3cccnc32)cc1` the “activity change, negative = inhibition” value was inactive: -7.05% [at 46.1 µM].
With `CCN(CCCNC(=O)c1[nH]c(C)c(C(C)=O)c1C)c1ccccc1` the Potency was inconclusive: 2.51 µM [inhibitor, full curve, poor fit].
For `O=S(=O)(NCCN1CCOCC1)c1cc(Cl)ccc1Cl`, the “activity change, negative = inhibition” value was inactive: -5.33% [at 46.1 µM].
For `CCOC(=O)c1[nH]c2ccc(Br)cc2c1NC(=O)CCN1CCCCC1`, the “activity change, negative = inhibition” value was inactive: 1.87%.
In the case of `CCCCc1nc2ccccc2c(NC(=O)CN2CCCC2)c1CCC`, the Potency is reported as inconclusive: 13 µM [inhibitor, partial curve, poor fit].
In the case of `O=C(NCCSc1c[nH]c2ccccc12)c1ccc(Cl)cc1`, the Potency is reported as inconclusive: 35.5 µM [activator, single point].
For `COc1ccc(Nc2nc(Cl)nc(Nc3ccc(OC)cc3OC)n2)c(OC)c1`, the Potency was inconclusive: 3.16 µM [inhibitor, single point].
In the case of `CCCN1C(=O)C(=O)N(CC(=O)c2cc(C)n(C3CC3)c2C)C1=O`, the Potency is reported as inconclusive: 3.98 µM [activator, single point].
In the case of `O=C(Nc1cccc(S(=O)(=O)NC2=NCCC2)c1)c1ccc(C(F)(F)F)cc1`, the “activity change, negative = inhibition” value is reported as inactive: -14.9%.
With `CCOc1cc(C)nc(NCc2ccccc2)n1` the “activity change, negative = inhibition” value was inactive: -19.1%.
In the case of `Cc1ccc(S(=O)(=O)NCCC(=O)NC2CCN(Cc3ccccc3)CC2)cc1`, the Potency is reported as inconclusive: 0.562 µM [inhibitor, partial curve, poor fit].
With `CCOc1ccccc1C(=O)NCC(=O)NNC(=O)CN(C)S(=O)(=O)c1ccc(Cl)cc1` the Potency was inconclusive: 17.8 µM [inhibitor, single point].
For `COC(=O)c1c(NC(=O)C2CCC2)sc(C(=O)N(C)C)c1C`, the “activity change, negative = inhibition” value was inactive: -2.02%.
For `COc1cc(/C=N/n2cnn(Cc3ccccc3Cl)c2=S)cc(OC)c1OC`, the “activity change, negative = inhibition” value was inactive: 15.9% [at 46.1 µM].
In the case of `COc1ccc(C(=O)CC2(O)C(=O)N(Cc3ccccc3)c3ccc(Br)cc32)cc1` (centres undefined), the “activity change, negative = inhibition” value is reported as inactive: -26.7% [at 46.1 µM].
In the case of `CCOC(=O)C(C)CC(C)C(=O)N1CCOCCN(C(=O)C(C)CC(C)C(=O)OCC)CCOCC1` (centres undefined), the Potency is reported as inconclusive: 4.61 µM [inhibitor, full curve, poor fit].
In the case of `Cc1cccc(C(=O)N/N=C/c2ccc(OC3CSC3)cc2)c1`, the “activity change, negative = inhibition” value is reported as inactive: -18.9%.
In the case of `CCN(CC)CCOCCn1c(C)ccc1C`, the Potency is reported as inconclusive: 2.82 µM [inhibitor, single point].
In the case of `CN(c1ccc(C(=O)N2CCN(Cc3ccccc3)CC2)cc1)S(=O)(=O)c1ccc(Cl)cc1`, the Potency is reported as inconclusive: 10 µM [inhibitor, partial curve].
With `CCc1ccc2c(CC(=O)Nc3nnc(C4CC4)s3)coc2c1` the Potency was inconclusive: 17.8 µM [inhibitor, partial curve].
In the case of `COc1ccc(C(=O)Nc2nc(C)c3cc4c(cc3n2)OCO4)cc1`, the Potency is reported as inconclusive: 1.41 µM [inhibitor, partial curve, poor fit].
In the case of `N#CCN1C(=S)N=C(Nc2cccc(Cl)c2)C12CCCCC2`, the Potency is reported as inconclusive: 0.631 µM [activator, full curve, poor fit].
